Measured values reported in paper PMC6411751, “Use of machine learning to identify novel, behaviorally active antagonists of the insect odorant receptor co-receptor (Orco) subunit” (Scientific Reports, 2019).

Chains of the proteins cited; added tags and fusions are not shown.
UniProt Q7QCC7, whole entry: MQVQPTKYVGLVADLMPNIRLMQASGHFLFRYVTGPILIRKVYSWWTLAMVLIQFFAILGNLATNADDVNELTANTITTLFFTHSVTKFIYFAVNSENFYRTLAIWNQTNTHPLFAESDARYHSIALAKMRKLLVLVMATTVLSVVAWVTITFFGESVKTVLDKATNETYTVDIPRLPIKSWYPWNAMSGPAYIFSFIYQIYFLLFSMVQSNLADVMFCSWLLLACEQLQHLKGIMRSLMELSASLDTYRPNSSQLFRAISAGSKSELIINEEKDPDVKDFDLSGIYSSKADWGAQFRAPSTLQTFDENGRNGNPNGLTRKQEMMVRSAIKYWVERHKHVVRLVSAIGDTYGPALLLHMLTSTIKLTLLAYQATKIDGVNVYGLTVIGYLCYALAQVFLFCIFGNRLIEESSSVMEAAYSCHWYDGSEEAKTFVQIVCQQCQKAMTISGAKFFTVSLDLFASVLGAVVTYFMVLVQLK

Target: Agam\Orco (Anopheles gambiae, UniProt Q7QCC7)
Details: Table S1; training actives; Agam\Orco activated by 30 µM OLC12; mean ± SEM (n = 3-8)

CCc1ccc(NC(=O)CSc2nnc(-c3ccccn3)n2CC)cc1
IC50: 45 µM

The match of structure and compound is tentative.
